Measurements: US20140112878A1, “Tyrosinase Inhibitor” (priority 2012, published 2014)
At least one compound was matched to its structure with a doubt left.

Columns and labels:
[1] = target: T1, human tyrosinase (neonatal epidermal melanocyte extract) (Homo sapiens, UniProt P14679); test: DOPA oxidase activity (MBTH method) in cell extract; type: biochemical; details: IPMP 0.00075 to 0.015 w/v %
T1 construct: host or cells: normal human neonatal epidermal melanocytes (NHEMs), detergent/ultrasonication lysate supernatant
T1 sequence (P14679 19-529): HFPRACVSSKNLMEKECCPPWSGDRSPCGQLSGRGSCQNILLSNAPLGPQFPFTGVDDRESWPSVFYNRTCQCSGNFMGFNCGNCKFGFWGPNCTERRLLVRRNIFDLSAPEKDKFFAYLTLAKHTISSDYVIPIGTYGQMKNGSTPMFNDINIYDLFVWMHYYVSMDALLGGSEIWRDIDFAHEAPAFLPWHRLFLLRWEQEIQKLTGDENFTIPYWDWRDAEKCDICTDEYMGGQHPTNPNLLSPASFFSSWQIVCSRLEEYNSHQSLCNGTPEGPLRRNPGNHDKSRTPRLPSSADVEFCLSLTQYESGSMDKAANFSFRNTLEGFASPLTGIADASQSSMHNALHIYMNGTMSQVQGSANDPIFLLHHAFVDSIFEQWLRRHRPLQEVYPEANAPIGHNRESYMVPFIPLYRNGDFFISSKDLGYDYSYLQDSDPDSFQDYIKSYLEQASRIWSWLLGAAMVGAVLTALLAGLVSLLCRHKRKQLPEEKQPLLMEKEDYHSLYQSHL
Protocol: The cells were then treated with ultrasonication, and were centrifuged at 15000 r.p.m. for 10 minutes, and the supernatant was obtained.
Tyrosinase activity was measured using the cell extract mentioned above. […] Then, 20 μL of the following test compounds were added to the wells so that the mixture reaches the final concentration shown in Table 1.

[2] = target: T2, tyrosinase (DOPA oxidase activity) in normal human neonatal epidermal melanocytes (NHEMs) (Homo sapiens, UniProt P14679); test: DOPA oxidase activity in cultured normal human neonatal epidermal melanocytes
T2 sequence (P14679 19-529): T1 sequence (P14679 19-529)

## Cc1cc(O)ccc1C(C)C [IPMP, isopropylmethylphenol]
[1]
  DOPA oxidase activity suppressive effect (in words): higher DOPA oxidase activity suppressive effect than kojic acid
[2]; 0.00001 to 0.0025 w/v %, Example 3
  DOPA oxidase activity suppressive effect (in words): shows DOPA oxidase activity suppressive effect depending on the concentration
[2]; Example 2
  DOPA oxidase activity suppressive effect (in words): higher DOPA oxidase activity suppressive effect than kojic acid
